Results on 42 sequences are retold here after paper PMC7819943, “Rice protein-binding microarrays: a tool to detect cis-acting elements near promoter regions in rice”.

This is one part of the list.

This assay has as its target T1, OsSMF1 (Oryza sativa, UniProt Q6ZLB0 1-436).
T1 sequence: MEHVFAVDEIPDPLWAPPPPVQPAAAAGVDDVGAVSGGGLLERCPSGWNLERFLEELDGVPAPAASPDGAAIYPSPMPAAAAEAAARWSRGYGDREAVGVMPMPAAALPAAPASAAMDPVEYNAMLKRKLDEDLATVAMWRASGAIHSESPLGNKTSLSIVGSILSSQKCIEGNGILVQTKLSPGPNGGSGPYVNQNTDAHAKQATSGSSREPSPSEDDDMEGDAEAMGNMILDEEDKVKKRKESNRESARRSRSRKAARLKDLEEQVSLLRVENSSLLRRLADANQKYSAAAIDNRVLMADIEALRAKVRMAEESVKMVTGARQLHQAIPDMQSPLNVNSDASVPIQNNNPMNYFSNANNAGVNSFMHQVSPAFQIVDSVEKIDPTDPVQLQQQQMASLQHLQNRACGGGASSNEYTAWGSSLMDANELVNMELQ
In words: protein-binding microarray (RPBM); PBS, 2% BSA, 51.3 ng/ul salmon testes DNA, 50 uM zinc acetate, 200 nM TF, 25 C, 1 h; high values mean tight binding. To be noted: protein: recombinant; tags: N-terminal polyhistidine and DsRed monomer fusion (pET32a); chain copies: 2; label: CyDye5-dUTP incorporated in the synthesized complementary strand; 3' TTTTT single-stranded linker to array surface; dsDNA, one strand shown. Put shortly:
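Binding signal is reported as fluorescence intensity per feature (arbitrary units) from an Axon 4000B scanner. Incubation used 200 nM of each Ni–NTA-purified, N-terminally polyhistidine- and DsRed-fused transcription factor from E. coli BL21-CodonPlus on a double-stranded custom Agilent array for 1 h at 25 °C, with 50 µM zinc acetate in the buffer, followed by washing.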
Turning to “GGCCCATGGGCCGCCACGTCCGCATGACAATCACGCTACCCGGAGTCACCTAGTGCAG”, the binding signal is 9270 fluorescence intensity (a.u.). For the sequence “TCTACTTAACATTGTATCTGCAAGGTATTGTAGTCTATTGCGGAGTCACCTAGTGCAG”, the binding signal was 3180 fluorescence intensity (a.u.). As to “CTCCTTGTCCACGTGGCGGCCTCCGATTCGCTGCCACCTCCGGAGTCACCTAGTGCAG”, the binding signal is 23900 fluorescence intensity (a.u.). On to “CTCATGTTTGTGTACGCATCATTGCTGATTCGTCGTCGACCGGAGTCACCTAGTGCAG”, for which the binding signal is 3830 fluorescence intensity (a.u.). For “CATGATCGATCACACGTACGTGACGTTACCAGGCCGCCCGCGGAGTCACCTAGTGCAG” the value was 5100 fluorescence intensity (a.u.); for “GAAGCCTCCCTCGGCCGCGTCACCACCGGCATCTGGTGCTCGGAGTCACCTAGTGCAG”, 8820 fluorescence intensity (a.u.); for “TGTATAGGTACTCCCGGACCGGTGACTGTCTACGTCACTCCGGAGTCACCTAGTGCAG”, 7430 fluorescence intensity (a.u.).

On to “CCAGCATCCTATATAGCCTCGCGGCCAGTACTCATCACTCCGGAGTCACCTAGTGCAG”, for which the binding signal was 3640 fluorescence intensity (a.u.). For “AATGGTGTGAGGCAGGCGGACCCAAAAGTGAGGCATGGCGCGGAGTCACCTAGTGCAG” the value was 24800 fluorescence intensity (a.u.).

Take “AAATGCCATCCCGGACAGAAATGCCCCTGGCTCTTCTTCTCGGAGTCACCTAGTGCAG”: the binding signal was 3790 fluorescence intensity (a.u.). For the sequence “TTACGATGTCTTACTACAACTATAATCACAAAGTCATCATCGGAGTCACCTAGTGCAG”, the binding signal is 3190 fluorescence intensity (a.u.).

Take “AAAGAAATATGGTAAAACTCCCATGAACAAGGCAGTGAATCGGAGTCACCTAGTGCAG”: the binding signal was 5200 fluorescence intensity (a.u.). In the case of “CACGATTGCTCGGTGAGCACTGAGCAGTGACCTCATTCGGCGGAGTCACCTAGTGCAG”, the binding signal is 3820 fluorescence intensity (a.u.). For the sequence “CTGCCGCGTCATGTCGCGTCGCCGTCGCCGCGCCGTCTCCCGGAGTCACCTAGTGCAG”, the binding signal is 12400 fluorescence intensity (a.u.).

Take “ATAAGGTCCTCCCTAGAATATATAGATTTTCATGGTTCTTCGGAGTCACCTAGTGCAG”: the binding signal was 6180 fluorescence intensity (a.u.).

For the sequence “GGTTATCTGCGTCGTCGTCTGTCATCTCCTCCTCATCTTCCGGAGTCACCTAGTGCAG”, the binding signal is 4480 fluorescence intensity (a.u.). Consider “GCGTGCACAGTTCGTGCAAGTTGGGAGGAGACGCTTGCCACGGAGTCACCTAGTGCAG”, for which the binding signal was 3690 fluorescence intensity (a.u.). Turning to “GAGCCACCAAACCCTAATCCCCAACACGCACACGCACACGCGGAGTCACCTAGTGCAG”, the binding signal was 3650 fluorescence intensity (a.u.). Turning to “AAACAAATTTGCTGACTAGGATTCCACGTCAGCGAAACCACGGAGTCACCTAGTGCAG”, the binding signal was 30000 fluorescence intensity (a.u.). In the case of “ACTTACACAGTAATTACACCTCACTTACACCCGCTTACACCGGAGTCACCTAGTGCAG”, the binding signal is 5410 fluorescence intensity (a.u.). For “GTAATTTTGTGTCACTTGCATGTGGGTCCATATCACTATGCGGAGTCACCTAGTGCAG” the value was 3620 fluorescence intensity (a.u.); for “TGGCATGACACATTGATCACTGTCAACTCGCTGAGTCAGCCGGAGTCACCTAGTGCAG”, 12800 fluorescence intensity (a.u.). On to “TGTGCTGGTTGGATGCTTTGCTGGCTTGGCAGGCCGTGTCCGGAGTCACCTAGTGCAG”, for which the binding signal was 3910 fluorescence intensity (a.u.). Turning to “GATAATAGTTTACTCGTTGATTAATCCAATTCGTAATACACGGAGTCACCTAGTGCAG”, the binding signal was 3720 fluorescence intensity (a.u.).

For “CCGTGGTTGGGGTGGTGGGCCGGGGTGTTACGTTAATGGGCGGAGTCACCTAGTGCAG”, the binding signal is 5120 fluorescence intensity (a.u.). Consider “TCCCATAACAGTATATGTGGGTGGTTTCGCTGACGTGGCACGGAGTCACCTAGTGCAG”, for which the binding signal is 29700 fluorescence intensity (a.u.). For “CGTTAATTTGGCATACGTGGCCGCGAGAGTGACTTCTCGTCGGAGTCACCTAGTGCAG” the value was 10700 fluorescence intensity (a.u.); for “ACGCTTTGCATGTGTAGACCACACCTTTCATCCTCCACCGCGGAGTCACCTAGTGCAG”, 3320 fluorescence intensity (a.u.). For the sequence “AACAAGAACAAGGATGCCTCACACGTTCTCGGACACAAGGCGGAGTCACCTAGTGCAG”, the binding signal is 3480 fluorescence intensity (a.u.).

For “GTTTTGGTATTGGCTATAAAATGACATGGATGTTATTGGACGGAGTCACCTAGTGCAG”, the binding signal was 4760 fluorescence intensity (a.u.). In the case of “GAGACTAAGTCAGCGTGCCAACGCATATTCAGCGCCACGCCGGAGTCACCTAGTGCAG”, the binding signal is 4520 fluorescence intensity (a.u.). To “TGAACTCAGATATGACTGACGCTTTGTCAAGGGCTCGAATCGGAGTCACCTAGTGCAG” belongs 4040 fluorescence intensity (a.u.); to “CACGCGGCCCAACCTGGAATTTGGGCCCACTACACAACTGCGGAGTCACCTAGTGCAG”, 3510 fluorescence intensity (a.u.); to “AGTACACCGTACACGGTGACGTAGCCCGTGCAGCCCACCACGGAGTCACCTAGTGCAG”, 9100 fluorescence intensity (a.u.). Take “CTCCTCCCATGCGCCGCCACGTAGGATCGCGCGATCAGATCGGAGTCACCTAGTGCAG”: the binding signal is 10300 fluorescence intensity (a.u.). For “TGTGTCATGGCTGATGTCAGCTCAGCATATATATATTCAGCGGAGTCACCTAGTGCAG”, the binding signal was 14900 fluorescence intensity (a.u.).

“CAGTACTGATTAAGCATTCTTTCAATTCGTCTGTTCCCCACGGAGTCACCTAGTGCAG”: the binding signal is 25100 fluorescence intensity (a.u.). In the case of “GGACTCGGCCGAACATTTGGGAAGAACCAACCACACCACCCGGAGTCACCTAGTGCAG”, the binding signal is 8210 fluorescence intensity (a.u.). Take “CTAGGGCGTCGGAGGGGCGGAGGTGGAGCTGGAGCGCGGGCGGAGTCACCTAGTGCAG”: the binding signal was 4750 fluorescence intensity (a.u.). For the sequence “AAGTTTATAACTATTTAAGTGACGTATACATAACGAAGAACGGAGTCACCTAGTGCAG”, the binding signal was 5020 fluorescence intensity (a.u.).

As to “TCCGGCCCGAGCTCTCTGGCCACGGCACGACCGAGATCGTCGGAGTCACCTAGTGCAG”, the binding signal is 3540 fluorescence intensity (a.u.). For “ACGAGATTAAAGGCGCCACACCGGCACGGCACGTGCCCTGCGGAGTCACCTAGTGCAG”, the binding signal was 4430 fluorescence intensity (a.u.).
